Assay results published in paper PMC3967948.
These are yes or no findings as the source states them, for the method shown. In cells and extracts the contact can be indirect. Here binding means that the protein was enriched with, or labelled near, the bait; the list need not be complete. A no says only that the protein was not detected with the bait.

Amino acid sequences for entries named in this document (tags omitted).
UniProt P17844: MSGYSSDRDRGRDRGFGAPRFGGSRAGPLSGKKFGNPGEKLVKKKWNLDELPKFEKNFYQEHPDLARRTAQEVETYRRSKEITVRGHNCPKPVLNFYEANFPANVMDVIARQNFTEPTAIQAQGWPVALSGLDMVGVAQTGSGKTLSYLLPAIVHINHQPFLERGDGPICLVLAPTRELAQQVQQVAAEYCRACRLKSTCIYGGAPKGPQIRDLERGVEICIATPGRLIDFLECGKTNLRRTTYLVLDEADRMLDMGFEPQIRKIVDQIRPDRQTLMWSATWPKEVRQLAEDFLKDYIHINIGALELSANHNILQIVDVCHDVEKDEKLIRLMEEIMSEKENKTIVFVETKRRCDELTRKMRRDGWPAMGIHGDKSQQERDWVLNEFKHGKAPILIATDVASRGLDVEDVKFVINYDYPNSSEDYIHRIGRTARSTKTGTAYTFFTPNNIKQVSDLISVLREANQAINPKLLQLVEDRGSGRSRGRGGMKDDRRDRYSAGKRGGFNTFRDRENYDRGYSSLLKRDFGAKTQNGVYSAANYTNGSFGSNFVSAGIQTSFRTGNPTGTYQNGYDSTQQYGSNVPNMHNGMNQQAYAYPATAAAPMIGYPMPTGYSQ
UniProt P34931: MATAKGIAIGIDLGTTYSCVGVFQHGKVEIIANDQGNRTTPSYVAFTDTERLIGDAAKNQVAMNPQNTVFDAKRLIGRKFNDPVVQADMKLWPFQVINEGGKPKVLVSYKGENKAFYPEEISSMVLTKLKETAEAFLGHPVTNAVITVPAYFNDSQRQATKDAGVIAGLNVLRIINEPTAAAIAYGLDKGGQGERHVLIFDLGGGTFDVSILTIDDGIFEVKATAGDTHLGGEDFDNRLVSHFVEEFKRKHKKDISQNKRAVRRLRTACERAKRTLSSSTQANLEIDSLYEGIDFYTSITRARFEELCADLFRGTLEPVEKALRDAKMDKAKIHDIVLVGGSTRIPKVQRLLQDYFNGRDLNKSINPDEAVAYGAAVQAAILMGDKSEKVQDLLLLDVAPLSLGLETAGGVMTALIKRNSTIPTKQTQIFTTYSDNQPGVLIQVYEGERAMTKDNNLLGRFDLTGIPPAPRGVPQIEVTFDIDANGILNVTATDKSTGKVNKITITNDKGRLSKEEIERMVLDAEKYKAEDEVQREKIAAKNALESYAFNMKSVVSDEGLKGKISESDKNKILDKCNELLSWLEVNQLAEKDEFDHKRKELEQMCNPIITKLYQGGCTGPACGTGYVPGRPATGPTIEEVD
UniProt P0DMV8: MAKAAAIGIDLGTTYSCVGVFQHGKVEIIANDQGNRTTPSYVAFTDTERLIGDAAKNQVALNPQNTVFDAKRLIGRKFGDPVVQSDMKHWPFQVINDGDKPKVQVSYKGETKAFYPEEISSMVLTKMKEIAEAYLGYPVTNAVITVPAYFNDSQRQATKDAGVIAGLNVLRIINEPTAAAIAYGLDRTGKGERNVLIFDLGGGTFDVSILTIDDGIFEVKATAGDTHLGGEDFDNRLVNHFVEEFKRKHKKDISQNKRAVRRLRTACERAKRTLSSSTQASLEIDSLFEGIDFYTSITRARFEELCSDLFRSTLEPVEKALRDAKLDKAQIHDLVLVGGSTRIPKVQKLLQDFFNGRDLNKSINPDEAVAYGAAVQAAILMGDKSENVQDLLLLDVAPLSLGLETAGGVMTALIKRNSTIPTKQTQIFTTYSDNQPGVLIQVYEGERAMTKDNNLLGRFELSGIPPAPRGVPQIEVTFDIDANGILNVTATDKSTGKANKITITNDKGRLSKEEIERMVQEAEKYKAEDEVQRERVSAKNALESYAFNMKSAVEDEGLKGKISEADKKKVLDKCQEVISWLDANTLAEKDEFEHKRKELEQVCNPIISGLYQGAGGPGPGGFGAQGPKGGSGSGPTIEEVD
UniProt P54652: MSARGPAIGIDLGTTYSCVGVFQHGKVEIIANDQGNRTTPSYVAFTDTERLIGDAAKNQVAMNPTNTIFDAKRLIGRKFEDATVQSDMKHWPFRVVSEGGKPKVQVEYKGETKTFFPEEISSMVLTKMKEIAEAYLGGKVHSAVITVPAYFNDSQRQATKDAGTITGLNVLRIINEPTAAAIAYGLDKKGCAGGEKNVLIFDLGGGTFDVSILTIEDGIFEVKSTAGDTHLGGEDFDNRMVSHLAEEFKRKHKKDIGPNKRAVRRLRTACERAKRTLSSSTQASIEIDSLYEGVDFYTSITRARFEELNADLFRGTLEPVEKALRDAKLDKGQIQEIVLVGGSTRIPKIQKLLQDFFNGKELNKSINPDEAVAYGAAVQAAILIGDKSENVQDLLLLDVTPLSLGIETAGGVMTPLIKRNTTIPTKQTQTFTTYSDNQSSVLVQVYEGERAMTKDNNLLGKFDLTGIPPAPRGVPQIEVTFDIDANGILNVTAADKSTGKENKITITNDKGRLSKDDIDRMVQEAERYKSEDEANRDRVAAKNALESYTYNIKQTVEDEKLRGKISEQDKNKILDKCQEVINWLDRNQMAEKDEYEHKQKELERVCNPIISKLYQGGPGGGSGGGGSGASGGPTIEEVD
UniProt Q32P51: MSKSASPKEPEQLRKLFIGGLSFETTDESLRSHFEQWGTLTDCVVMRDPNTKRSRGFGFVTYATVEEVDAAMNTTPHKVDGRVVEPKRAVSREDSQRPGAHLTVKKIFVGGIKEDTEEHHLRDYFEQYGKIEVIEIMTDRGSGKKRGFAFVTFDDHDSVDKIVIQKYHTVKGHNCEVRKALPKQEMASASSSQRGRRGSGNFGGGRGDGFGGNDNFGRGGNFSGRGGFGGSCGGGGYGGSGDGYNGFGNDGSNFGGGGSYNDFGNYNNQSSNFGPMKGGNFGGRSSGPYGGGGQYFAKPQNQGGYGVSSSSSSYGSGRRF
UniProt P31943: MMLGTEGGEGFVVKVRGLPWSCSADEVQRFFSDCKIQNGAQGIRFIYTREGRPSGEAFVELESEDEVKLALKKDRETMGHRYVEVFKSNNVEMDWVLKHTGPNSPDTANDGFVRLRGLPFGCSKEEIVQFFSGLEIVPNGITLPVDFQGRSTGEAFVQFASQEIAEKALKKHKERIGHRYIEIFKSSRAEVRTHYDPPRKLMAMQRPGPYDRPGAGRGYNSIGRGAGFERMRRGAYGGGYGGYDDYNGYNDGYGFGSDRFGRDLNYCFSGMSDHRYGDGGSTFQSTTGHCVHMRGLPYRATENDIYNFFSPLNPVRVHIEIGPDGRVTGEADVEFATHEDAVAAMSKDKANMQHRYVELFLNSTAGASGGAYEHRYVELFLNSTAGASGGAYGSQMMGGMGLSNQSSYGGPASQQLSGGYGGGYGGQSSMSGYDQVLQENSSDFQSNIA
UniProt P11940: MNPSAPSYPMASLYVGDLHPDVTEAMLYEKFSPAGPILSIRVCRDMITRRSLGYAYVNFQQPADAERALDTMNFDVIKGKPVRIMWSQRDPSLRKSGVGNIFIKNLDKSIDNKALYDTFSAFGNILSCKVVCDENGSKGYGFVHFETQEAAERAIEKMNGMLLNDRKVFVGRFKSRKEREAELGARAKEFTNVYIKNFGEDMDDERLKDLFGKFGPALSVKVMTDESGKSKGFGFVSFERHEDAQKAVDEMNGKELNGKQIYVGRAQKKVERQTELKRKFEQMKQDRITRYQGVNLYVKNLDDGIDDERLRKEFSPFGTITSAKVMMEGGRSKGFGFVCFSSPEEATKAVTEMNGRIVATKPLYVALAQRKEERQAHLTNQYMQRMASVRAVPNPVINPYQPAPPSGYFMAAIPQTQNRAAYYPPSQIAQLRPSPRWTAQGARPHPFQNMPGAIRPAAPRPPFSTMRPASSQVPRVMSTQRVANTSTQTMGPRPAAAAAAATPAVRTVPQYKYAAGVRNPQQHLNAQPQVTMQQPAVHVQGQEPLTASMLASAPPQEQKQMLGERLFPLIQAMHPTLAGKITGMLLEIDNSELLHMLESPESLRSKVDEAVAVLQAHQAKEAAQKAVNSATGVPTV
UniProt O00571: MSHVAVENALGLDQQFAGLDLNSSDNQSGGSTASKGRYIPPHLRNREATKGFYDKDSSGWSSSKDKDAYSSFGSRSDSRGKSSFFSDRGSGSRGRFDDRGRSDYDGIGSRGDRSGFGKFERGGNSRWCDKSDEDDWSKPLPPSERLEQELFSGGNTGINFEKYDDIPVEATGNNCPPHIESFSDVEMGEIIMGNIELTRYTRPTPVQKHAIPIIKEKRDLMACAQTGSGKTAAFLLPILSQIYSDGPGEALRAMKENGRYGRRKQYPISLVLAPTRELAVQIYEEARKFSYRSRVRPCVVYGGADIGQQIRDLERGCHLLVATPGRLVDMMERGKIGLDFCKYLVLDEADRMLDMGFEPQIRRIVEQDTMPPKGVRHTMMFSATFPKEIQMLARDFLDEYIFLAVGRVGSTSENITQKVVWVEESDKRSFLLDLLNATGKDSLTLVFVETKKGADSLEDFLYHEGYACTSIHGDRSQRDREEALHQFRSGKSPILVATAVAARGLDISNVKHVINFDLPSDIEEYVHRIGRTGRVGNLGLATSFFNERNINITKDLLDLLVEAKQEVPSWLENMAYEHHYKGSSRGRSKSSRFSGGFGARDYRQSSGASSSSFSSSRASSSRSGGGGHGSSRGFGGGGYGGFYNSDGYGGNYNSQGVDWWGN
UniProt P26599: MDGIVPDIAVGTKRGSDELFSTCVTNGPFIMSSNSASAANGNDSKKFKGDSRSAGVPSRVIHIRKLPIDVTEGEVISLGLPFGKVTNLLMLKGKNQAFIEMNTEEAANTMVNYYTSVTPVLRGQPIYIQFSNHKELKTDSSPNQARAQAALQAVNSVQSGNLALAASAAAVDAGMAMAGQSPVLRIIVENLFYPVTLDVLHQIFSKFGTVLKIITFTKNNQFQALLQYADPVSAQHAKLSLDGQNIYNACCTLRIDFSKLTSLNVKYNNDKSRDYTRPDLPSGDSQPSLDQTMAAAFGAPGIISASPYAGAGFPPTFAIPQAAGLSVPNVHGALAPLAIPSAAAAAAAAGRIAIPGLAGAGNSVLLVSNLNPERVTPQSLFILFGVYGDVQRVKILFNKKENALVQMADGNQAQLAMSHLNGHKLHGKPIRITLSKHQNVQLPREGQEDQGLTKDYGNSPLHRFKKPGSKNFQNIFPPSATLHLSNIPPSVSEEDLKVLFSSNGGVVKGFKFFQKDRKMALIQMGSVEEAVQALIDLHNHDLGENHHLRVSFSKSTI
UniProt P12956: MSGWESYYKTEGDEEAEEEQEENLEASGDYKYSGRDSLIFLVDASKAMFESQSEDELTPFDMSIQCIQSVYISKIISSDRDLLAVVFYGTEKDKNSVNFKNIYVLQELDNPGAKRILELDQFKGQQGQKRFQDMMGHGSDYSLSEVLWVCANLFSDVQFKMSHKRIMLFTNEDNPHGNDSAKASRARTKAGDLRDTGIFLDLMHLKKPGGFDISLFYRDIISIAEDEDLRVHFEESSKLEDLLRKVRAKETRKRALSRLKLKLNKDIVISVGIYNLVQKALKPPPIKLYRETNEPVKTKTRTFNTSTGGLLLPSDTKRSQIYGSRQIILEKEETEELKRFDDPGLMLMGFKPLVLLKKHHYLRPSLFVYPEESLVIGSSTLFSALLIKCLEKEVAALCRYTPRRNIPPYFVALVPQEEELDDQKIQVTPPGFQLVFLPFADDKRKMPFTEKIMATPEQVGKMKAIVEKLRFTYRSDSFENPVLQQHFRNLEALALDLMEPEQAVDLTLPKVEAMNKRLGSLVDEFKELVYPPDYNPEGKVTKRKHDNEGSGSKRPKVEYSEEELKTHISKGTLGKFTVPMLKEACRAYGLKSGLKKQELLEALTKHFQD
UniProt Q8VEK3: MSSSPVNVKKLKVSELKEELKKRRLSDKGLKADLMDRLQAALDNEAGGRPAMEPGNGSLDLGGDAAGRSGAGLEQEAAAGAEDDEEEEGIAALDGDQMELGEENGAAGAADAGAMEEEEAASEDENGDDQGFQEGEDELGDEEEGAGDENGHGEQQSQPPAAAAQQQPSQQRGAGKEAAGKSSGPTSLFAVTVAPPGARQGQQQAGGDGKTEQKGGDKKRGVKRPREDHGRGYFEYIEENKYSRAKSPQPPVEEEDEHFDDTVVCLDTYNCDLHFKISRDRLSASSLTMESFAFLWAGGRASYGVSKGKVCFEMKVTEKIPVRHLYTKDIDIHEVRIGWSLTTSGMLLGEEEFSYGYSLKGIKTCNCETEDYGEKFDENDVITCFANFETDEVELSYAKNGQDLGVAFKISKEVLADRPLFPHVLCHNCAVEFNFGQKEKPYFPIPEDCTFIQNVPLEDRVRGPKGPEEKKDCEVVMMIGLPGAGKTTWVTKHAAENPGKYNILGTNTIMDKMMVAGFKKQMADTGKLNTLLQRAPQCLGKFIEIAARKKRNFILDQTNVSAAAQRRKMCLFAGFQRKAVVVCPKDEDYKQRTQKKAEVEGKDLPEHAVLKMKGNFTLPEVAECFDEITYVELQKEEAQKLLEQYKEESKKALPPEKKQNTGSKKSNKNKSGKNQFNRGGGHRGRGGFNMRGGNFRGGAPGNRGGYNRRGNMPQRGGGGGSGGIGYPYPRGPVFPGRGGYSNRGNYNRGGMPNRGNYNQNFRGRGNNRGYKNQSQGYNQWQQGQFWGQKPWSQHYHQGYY

T1: TBX3 (endogenous, human) (human (endogenous in HEK293)) (UniProt O15119)
T1 sequence: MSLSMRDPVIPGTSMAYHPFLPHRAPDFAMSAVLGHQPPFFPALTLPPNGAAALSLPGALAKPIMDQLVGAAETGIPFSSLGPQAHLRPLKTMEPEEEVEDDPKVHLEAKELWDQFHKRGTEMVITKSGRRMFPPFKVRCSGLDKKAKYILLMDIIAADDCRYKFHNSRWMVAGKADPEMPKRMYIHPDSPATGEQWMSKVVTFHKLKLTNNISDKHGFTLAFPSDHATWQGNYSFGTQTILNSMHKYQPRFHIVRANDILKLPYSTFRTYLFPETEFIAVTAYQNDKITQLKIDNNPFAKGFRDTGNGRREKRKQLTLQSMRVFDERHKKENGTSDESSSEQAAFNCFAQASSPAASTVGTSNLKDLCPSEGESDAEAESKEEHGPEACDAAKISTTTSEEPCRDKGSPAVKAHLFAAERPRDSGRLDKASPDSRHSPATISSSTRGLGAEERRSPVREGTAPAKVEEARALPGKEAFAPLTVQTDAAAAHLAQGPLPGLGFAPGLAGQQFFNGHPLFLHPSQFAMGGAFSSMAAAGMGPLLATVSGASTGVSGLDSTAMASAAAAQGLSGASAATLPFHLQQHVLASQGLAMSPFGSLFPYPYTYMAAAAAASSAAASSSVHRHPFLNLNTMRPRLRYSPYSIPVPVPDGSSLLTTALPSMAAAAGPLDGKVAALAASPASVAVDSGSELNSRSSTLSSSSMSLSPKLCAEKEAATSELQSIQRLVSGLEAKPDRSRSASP

T2: Tbx3 (endogenous, mouse) (mouse (endogenous in e10.5 embryos)) (UniProt P70324)
T2 sequence: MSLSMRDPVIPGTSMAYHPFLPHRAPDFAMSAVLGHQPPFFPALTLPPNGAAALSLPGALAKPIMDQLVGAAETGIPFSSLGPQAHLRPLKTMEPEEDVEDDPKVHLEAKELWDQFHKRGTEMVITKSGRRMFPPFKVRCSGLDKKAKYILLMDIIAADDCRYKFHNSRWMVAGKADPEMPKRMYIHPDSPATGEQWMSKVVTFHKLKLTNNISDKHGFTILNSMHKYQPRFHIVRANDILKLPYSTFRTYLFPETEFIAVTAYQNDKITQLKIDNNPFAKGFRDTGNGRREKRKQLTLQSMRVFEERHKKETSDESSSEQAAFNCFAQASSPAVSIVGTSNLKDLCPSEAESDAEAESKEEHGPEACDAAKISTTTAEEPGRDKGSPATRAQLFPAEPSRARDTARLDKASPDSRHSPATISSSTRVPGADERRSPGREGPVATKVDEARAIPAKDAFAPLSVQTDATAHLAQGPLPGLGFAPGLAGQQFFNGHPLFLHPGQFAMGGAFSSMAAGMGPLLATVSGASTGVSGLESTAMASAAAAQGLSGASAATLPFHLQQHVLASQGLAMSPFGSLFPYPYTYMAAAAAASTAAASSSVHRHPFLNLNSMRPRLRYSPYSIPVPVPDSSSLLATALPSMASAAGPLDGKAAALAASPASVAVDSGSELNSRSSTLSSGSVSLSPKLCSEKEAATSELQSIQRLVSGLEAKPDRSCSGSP


Experiments:
[1] = molecular target: T1, TBX3 (endogenous, human) (human (endogenous in HEK293)); assay: affinity purification with mass spectrometry; IP of HEK293 lysates with a custom polyclonal antibody against a C-terminal peptide of TBX3; SDS-PAGE bands, tandem MS; N = 4; only proteins in at least two IP/MS datasets and not in negative control IgG IPs
[2] = molecular target: T2, Tbx3 (endogenous, mouse) (mouse (endogenous in e10.5 embryos)); assay: affinity purification with mass spectrometry; IP of e10.5 mouse embryo lysates with a custom polyclonal antibody against a C-terminal peptide of TBX3; SDS-PAGE bands, tandem MS; N = 3; only proteins in at least two IP/MS datasets and not in negative control IgG IPs

| Molecule | binding [1] | binding [2] |
| --- | --- | --- |
| ATP-dependent RNA helicase DDX5 (from UniProt P17844 1-614) | binds |  |
| Heat shock 70 kDa protein 1-like (from UniProt P34931 1-641) | binds |  |
| Heat shock 70 kDa protein 1A; heat shock 70 kDa protein 1B (from UniProt P0DMV8 1-641) | binds |  |
| Heat shock 70 kDa protein 2 (from UniProt P54652 1-639) | binds |  |
| Heat shock 70 kDa protein 8 (from UniProt P11142 1-646) | binds |  |
| Heterogeneous nuclear ribonucleoprotein A1-like 2 (from UniProt Q32P51 1-320) | binds |  |
| Heterogeneous nuclear ribonucleoprotein H1 (from UniProt P31943 1-449) | binds |  |
| Poly(A) binding protein, cytoplasmic 1 (from UniProt P11940 1-636) | binds |  |
| Poly(rC) binding protein 1 (from UniProt Q15365 1-356) | binds |  |
| Probable ATP-dependent RNA helicase DDX17 (from UniProt Q92841 1-729) | binds |  |
| SC35 (mouse) (from UniProt Q62093 1-221) |  | no binding |
| XPO1 (from UniProt O14980 1-1071) | binds |  |
| hnrnp k (mouse) (from UniProt P61979 1-463) |  | binds |
| Raver 1 (mouse) (protein, UniProt Q9CW46 1-748) MAADVSVTHRPPLSPEAEAEAETPETVDRRAPEQELPPLDPEEIRKRLEHTERQFRNRRKILIRGLPGDVTNQEVHDLLSDYELKYCFVDKYKGTAFVTLLNGEQAEAAINTFHQSRLRERELSVQLQPTDALLCVANLPPSLTQAQFEELVRPFGSLERCFLVYSERTGHSKGYGFAEYMKKDSAARAKSDLLGKPLGPRTLYVHWTDAGQLTPALLHSRCLCVDHLPPGFSDVDALRRALSVVYTPTFCQLACGQDGQLKGFAVLEYETAEMAEAAQERADGQALGDSHLRVSFCAPGPPGRSMLAALIAAQATALNRGKGLLPEPNLLQLLNNLGPSASLQLLLNPLLHGGASGKQGLLGAPPAMPLLSGPALSTALLQLALQSQSQNQSQGQKKPGILGDSPLGTLQAGAQPSNSLLGELSAGGGLAPELPPRRGKPQPLLPPLLGPSGGDREPMGLGPPATQLTPPPAPVGLRGSNHRGLPKDSGPLPTPPGVSLLGEPPKDYRIPLNPYLNLHSLLPSSNLAGKETRGWGGSGRGRRPAEPPLPSPAVPGGGSGSNNGNKAFQMKSRLLSPIASNRLPPEPGLPDSYGFDYPTDVGPRRLFSHPREPTLGAHGPSRHKMSPPPSSFNEPRSGGGSGGPLSHFYSGSPTSYFTSGLQAGLKQSHLNKAVGSSPMGSSEGLLGLGPGPNGHSHLLKTPLGGQKRSFSHLLPSPEPSPEGSYVGQHSQGLGGHYADSYLKRKRIF |  | binds |

Next, values leading:

| binding [1] | binding [2] | Molecule |
| --- | --- | --- |
| binds |  | ATP-dependent RNA helicase DDX3X (from UniProt O00571 1-662) |
| binds |  | Heterogeneous nuclear ribonucleoprotein K (from UniProt P61978 1-463) |
| binds |  | PTB1 (from UniProt P26599 1-557) |
| binds |  | XRCC6 (from UniProt P12956 1-609) |
|  | binds | hnrnp u (mouse) (from UniProt Q8VEK3 1-800) |
| no binding |  | SC35 (human) (protein, UniProt Q01130 1-221) MSYGRPPPDVEGMTSLKVDNLTYRTSPDTLRRVFEKYGRVGDVYIPRDRYTKESRGFAFVRFHDKRDAEDAMDAMDGAVLDGRELRVQMARYGRPPDSHHSRRGPPPRRYGGGGYGRRSRSPRRRRRSRSRSRSRSRSRSRSRYSRSKSRSRTRSRSRSTSKSRSARRSKSKSSSVSRSRSRSRSRSRSRSPPPVSKRESKSRSRSKSPPKSPEEEGAVSS |
| binds |  | Heterogeneous nuclear ribonucleoprotein M (protein, UniProt P52272 1-730) MAAGVEAAAEVAATEIKMEEESGAPGVPSGNGAPGPKGEGERPAQNEKRKEKNIKRGGNRFEPYANPTKRYRAFITNIPFDVKWQSLKDLVKEKVGEVTYVELLMDAEGKSRGCAVVEFKMEESMKKAAEVLNKHSLSGRPLKVKEDPDGEHARRAMQKVMATTGGMGMGPGGPGMITIPPSILNNPNIPNEIIHALQAGRLGSTVFVANLDYKVGWKKLKEVFSMAGVVVRADILEDKDGKSRGIGTVTFEQSIEAVQAISMFNGQLLFDRPMHVKMDERALPKGDFFPPERPQQLPHGLGGIGMGLGPGGQPIDANHLNKGIGMGNIGPAGMGMEGIGFGINKMGGMEGPFGGGMENMGRFGSGMNMGRINEILSNALKRGEIIAKQGGGGGGGSVPGIERMGPGIDRLGGAGMERMGAGLGHGMDRVGSEIERMGLVMDRMGSVERMGSGIERMGPLGLDHMASSIERMGQTMERIGSGVERMGAGMGFGLERMAAPIDRVGQTIERMGSGVERMGPAIERMGLSMERMVPAGMGAGLERMGPVMDRMATGLERMGANNLERMGLERMGANSLERMGLERMGANSLERMGPAMGPALGAGIERMGLAMGGGGGASFDRAIEMERGNFGGSFAGSFGGAGGHAPGVARKACQIFVRNLPFDFTWKMLKDKFNECGHVLYADIKMENGKSKGCGVVKFESPEVAERACRMMNGMKLSGREIDVRIDRNA |
| binds |  | Ribonucleoprotein PTB-binding 1 (protein, UniProt Q8IY67 1-606) MAADVSVTHRPPLSPKSGAEVEAGDAAERRAPEEELPPLDPEEIRKRLEHTERQFRNRRKILIRGLPGDVTNQEVHDLLSDYELKYCFVDKYKGTAFVTLLNGEQAEAAINAFHQSRLRERELSVQLQPTDALLCVANLPPSLTQQQFEELVRPFGSLERCFLVYSERTGQSKGYGFAEYMKKDSAARAKSDLLGKPLGPRTLYVHWTDAGQLTPALLHSRCLCVDRLPPGFNDVDALCRALSAVHSPTFCQLACGQDGQLKGFAVLEYETAEMAEEAQQQADGLSLGGSHLRVSFCAPGPPGRSMLAALIAAQATALNRGKGLLPEPNILQLLNNLGPSASLQLLLNPLLHGSAGGKQGLLGAPPAMPLLNGPALSTALLQLALQTQGQKKPGILGDSPLGALQPGAQPANPLLGELPAGGGLPPELPPRRGKPPPLLPSVLGPAGGDREALGLGPPAAQLTPPPAPVGLRGSGLRGPLSHFYSGSPTSYFTSGLQAGLKQSHLSKAIGSSPLGSGEGLLGLSPGPNGHSHLLKVRAGGGDMQGWEAPAPQRPLTRPALPSVSRPHWAARNAALPTCCPRPSPAQKAAMWASTPRASAATTRTPT |
